Experimental data reported in patent publication US8058243B2, “Method for treating a brain cancer with ifenprodil” (HSC Research and Development Limited Partnership, priority 2006, dated 2011).
Counter-ions that a name gives are not always drawn. Like-named read-outs stand apart in the source and are kept apart here.

System: murine neural precursor cells (neurosphere cultures)
Assay: HTS of LOPAC library against secondary neurosphere cultures, MTT proliferation assay at 3 μM, day 7 (z score, P value)
Assay type: cell-based, mouse
[1] = yes/no: significantly inhibited neurosphere proliferation (P<0.01) in primary screen

CCCN1CCC[C@@H]2Cc3[nH]ncc3C[C@H]21.Cl.Cl (racemic) [(±)-Quinpirole dihydrochloride]
Z score: −0.451

Br.CN1[C@@H]2CC[C@H]1C[C@@H](OC(=O)C(O)c1ccccc1)C2 (mixture of isomers) [DL-Homatropine hydrobromide]
Activity: no | Z Score: 0.744 | Z score (LOPAC primary screen, neurosphere MTT proliferation, 3 μM, day 7): 0.744

CCCN1CCCC2Cc3[nH]ncc3CC21.Cl.Cl (stereo not shown) [(B1)-Quinpirole dihydrochloride]
Z Score: −0.4513

C(=C\c1ccccc1)/CN1CCN(C(c2ccccc2)c2ccccc2)CC1 [Cinnarizine]
Activity [1]: no

CN1CCC[C@@H]1CCO[C@](C)(c1ccccc1)c1ccc(Cl)cc1 [Clemastine fumarate]
Activity [1]: no

CCN(CC)CCOC(=O)C1(C2CCCCC2)CCCCC1 [Dicyclomine hydrochloride]
Activity [1]: no

CN(C)CCN(Cc1cccs1)c1ccccn1 [Methapyrilene hydrochloride]
Activity: no

Cc1ccccc1C(OCCN(C)C)c1ccccc1 (stereo not shown) [Orphenadrine hydrochloride]
Activity (yes/no: significantly inhibited neurosphere proliferation (P<0.01) in the primary screen): no

CCN(CC)C(=O)NC1C=C2c3cccc4[nH]cc(c34)C[C@H]2N(C)C1.O=C(O)/C=C\C(=O)O (stereo partly drawn) [R(+)-Lisuride hydrogen maleate]
Activity: no

O=C1NC(=O)C(c2ccccc2[N+](=O)[O-])=C1Nc1ccc(O)c(Cl)c1 [SB 415286]
Activity: yes

COc1ccc(-n2nc(C(F)(F)F)cc2-c2ccc(Cl)cc2)cc1 [SC-560]
Activity: no
